From PubChem BioAssay AID1347076 (National Center for Advancing Translational Sciences (NCATS), 2019)
Where “and” joins values, the source holds several entries; their conditions need not be identical. Equal values may be shown once. In all, about 400,000 compounds went through this assay and about 13,000 (3.2%) were called active. Inconclusive results, whose numbers are uncertain, are shown with a selection of clear calls. Calls follow the shape of the dose curve; as a rule, active = well fitted cell-killing curve with a large enough effect; inconclusive = small, poorly fitted or top-dose-only effect, or effect the other way; inactive = flat fitted curve, though single readings scatter. A potency beside an inconclusive call is a rough fit, not a confirmed value.

Test: qHTS assay for MDR1-selective chemotherapeutics: Primary screen using the drug-selected MDR subline cells KB-V1; also: nearly all actives have a fitted effect of over 60% in size
Conditions: KB-V1 MDR cells viability, CellTiter-Glo, 72 h; activity change, negative = cytotoxicity: at 46.1 µM (top of the series)
Procedure, shortened: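 Potencies derive from concentration-effect curves fitted to normalized luminescence (CellTiter-Glo) of KB-V1 cells treated for 72 h at 37 degrees C in phenol-red-free DMEM containing 10% FBS.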
% is scaled to controls: 0 for no effect and ±100 for the full control effect; potency is read from the fitted curve at half-maximal effect.

SMILES	Potency	activity change, negative = cytotoxicity
Cc1ccc(NC(=O)COC(=O)/C=C/c2cccs2)cc1	inconclusive: 16.4 µM [rising, single point]	–
Cc1ccc(Cn2cc(S(=O)(=O)c3ccc(Cl)cc3)c(=O)c3cc(F)ccc32)cc1	inconclusive: 1.84 µM [cytotoxic, full curve, poor fit]	–
COc1ccccc1N(C(=O)c1ccco1)C(C(=O)NC1CCCCC1)c1cc(OC)c(OC)c(OC)c1 (centres undefined)	inconclusive: 11.6 µM [cytotoxic, partial curve, poor fit]	–
Cc1ccc(NC(=O)C2(c3cccs3)CCOCC2)cc1Cl	–	inactive: 0.417%
COc1ccc(Br)cc1C1C(C(=O)Nc2ccc(C)cc2C)=C(C)Nc2ncnn21 (centres undefined)	–	inactive: 4.1%
CSc1ccc(CNC(=O)C2(C)CCN2C(C)C)cc1 (centres undefined)	–	inactive: 5.41%
Cn1c(=O)c2c(nc(NCc3cccnc3)n2Cc2cccc(C(F)(F)F)c2)n(C)c1=O	inconclusive: 16.4 µM [cytotoxic, partial curve]	–
Cc1ccc(C)c(N2CCN(C(=O)c3cn(CC(C)C)c(=O)c4c3c3ccccc3n4C)CC2)c1	inconclusive: 20.6 µM [cytotoxic, single point]	–
CCCCCCN1C[C@H](O)[C@@H](n2cc(C3CC3)nn2)C[C@@H]1c1ccc(C)cc1	inconclusive: 18.4 µM [cytotoxic, single point]	–
CCOC(=O)c1cnn2cc(-c3[nH]ncc3[N+](=O)[O-])cnc12	inconclusive: 29.1 µM [rising, single point]	–
O=C(COC(=O)C1=NN(c2ccccc2)C(=O)CC1)NCc1ccccc1Cl	inconclusive: 29.1 µM [rising, single point]	–
COc1cccc(NC(=O)Cn2nnc(C(=O)NCc3cccs3)c2N)c1	inconclusive: 29.1 µM [rising, single point]	–
COCc1ccc(CN2CCC(C(=O)Nc3cccc(-c4cscn4)c3)CC2)o1	–	inactive: -10.5%
Cc1cc(C)c(NC(=O)CN(C2CCCCC2)C2CCCCC2)c(C)c1	inconclusive: 20.6 µM [cytotoxic, partial curve]	–
CC1(C)CC(=O)/C(=C(\O)CCCN2C(=O)c3ccccc3C2=O)C(=NCC(=O)O)C1	inconclusive: 18.4 µM [rising, single point]	–
CC(=O)Nc1ccc(-n2c(C)ccc2C)cc1	inconclusive: 0.58 µM [rising, full curve, poor fit]	–
Cc1ccc2c(CNCCc3ccccc3)c(C(=O)O)n(Cc3ccccc3C)c2c1	–	inactive: 0%
O=C(c1ccc(Cl)cc1)n1cnc2ccccc21	inconclusive: 29.1 µM [rising, single point]	–
c1ccc2c(c1)CCN(C1=Nc3cccc4cccc1c34)C2	inconclusive: 29.1 µM [cytotoxic, single point]	–
Cc1nnc(N/N=C/c2cc([N+](=O)[O-])c(N3CCC(C)CC3)cc2N2CCC(C)CC2)n1N	active: 23.1 µM	–
CC(C)(C)NC(=O)C1(C)CCC(=O)N1C1CC1 (centres undefined)	–	inactive: 10.3%
CCOc1ccc(CNC(=O)c2cccc(NC(=O)N3CCSc4ncccc43)c2)cc1OC	–	inactive: 0.519%
O=C(CCN1C(=O)/C(=C\c2ccccc2)SC1=S)N1CCCCC1	–	inactive: -21.2%

Already shown: two of the compounds above.
SMILES	Potency	activity change, negative = cytotoxicity
Cc1ccc(C)c(N2CCN(C(=O)c3cn(CC(C)C)c(=O)c4c3c3ccccc3n4C)CC2)c1	inconclusive: 20.6 µM [cytotoxic, single point]	–
CCCCCCN1C[C@H](O)[C@@H](n2cc(C3CC3)nn2)C[C@@H]1c1ccc(C)cc1	inconclusive: 18.4 µM [cytotoxic, single point]	–

Next part

SMILES	Potency	activity change, negative = cytotoxicity
Cc1nn(-c2ccccc2)c(Cl)c1/C=N/NC(=O)c1cccc(S(=O)(=O)N2CCCC2)c1	–	inactive: 22.4%
O=C1CC(=Nc2ccc([N+](=O)[O-])cc2)NN1c1c(Cl)cc(Cl)cc1Cl	–	inactive: -0.67%
CC(=O)N1CCCc2cc(S(=O)(=O)N3CCCC(C(=O)N4CCN(c5cccc(Cl)c5)CC4)C3)ccc21 (centres undefined)	inconclusive: 11.6 µM [cytotoxic, partial curve, poor fit] and active: 16.4 µM	–
O=C(CSc1nccn(-c2ccc(Br)cc2)c1=O)NCc1ccccc1	active: 13 µM	–
CCCn1nc2cc(C(=O)NCCCCc3ccccc3)ccc2c1OCC	inconclusive: 5.8 µM [cytotoxic, partial curve]	–
CCN(CC)CCNc1nc2cc(OC)c(OC)cc2c2nc(-c3ccccc3)nn12	active: 9.2 µM	–
Cc1cc(C)n(-c2ccc(C(=O)Nc3cccc(S(=O)(=O)N(C)C)c3)cc2)n1	inconclusive: 29.1 µM [cytotoxic, single point]	–
O=C(NC1CCCC1)C1c2ccccc2OCC(=O)N1C1CC1 (centres undefined)	–	inactive: -39.9%
CCOC(=O)N1CCN(C(=O)c2nn(-c3ccc(C)cc3)c(=O)c3c2c2ccccc2n3C)CC1	inconclusive: 25.9 µM [cytotoxic, partial curve, poor fit]	–
CCOc1cc(C(=O)CCC(=O)OCC(=O)Nc2ccc(C)c(S(=O)(=O)N(C)C)c2)ccc1O	inconclusive: 29.1 µM [rising, single point]	–
CCN(CC)c1ccc2nc3ccccc3[n+](CC)c2c1	active: 9.2 µM	–
Cc1ccccc1OCc1ccc(C(=O)N2CCOCC2)o1	inconclusive: 0.0052 µM [rising, full curve, poor fit]	–
CCCCNc1c(-c2ccc(OC)c(SC(C)CC)c2)nc2cnccn12 (centres undefined)	inconclusive: 29.1 µM [cytotoxic, single point]	–
COc1ccc(CNC(=O)[C@H](Cc2ccccc2)NC(=O)CC[C@H]2O[C@@H](n3ccc(=O)[nH]c3=O)[C@H](O)[C@@H]2O)cc1	–	inactive: 20.8%
CCCCC1(O)CC(C(F)(F)F)=NN1C(=O)COc1ccccc1 (centres undefined)	inconclusive: 23.1 µM [cytotoxic, single point]	–
COc1ccc(CCNS(=O)(=O)c2cccc3cccnc23)cc1OC	inconclusive: 32.6 µM [cytotoxic, single point]	–
O=C(CSCc1nc2c(nnn2Cc2ccc(F)cc2)c(=O)[nH]1)Nc1cccc(C(F)(F)F)c1	–	inactive: 3.14%
CCCS(=O)(=O)c1nc(S(=O)(=O)c2ccc(C)cc2)c(N2CCN(C)CC2)s1	–	inactive: -8.78%
Cc1ccc(-n2nnnc2SCc2nc3sc(C)c(C)c3c(=O)[nH]2)cc1	active: 18.4 µM	–
CC1CCCN(C(=O)c2ccc(NS(=O)(=O)c3cccc([N+](=O)[O-])c3)cc2)C1 (centres undefined)	–	inactive: 20.1%
Cc1ccc(S(=O)(=O)NCc2ccc(C(=O)N3CCc4ccccc4C3)cc2)cc1	active: 4.61 µM	–
C=C(C)CN(CC)c1nc(N)c(C#N)c(CC#N)c1C#N	inconclusive: 18.4 µM [cytotoxic, partial curve]	–
Cc1cc(C)cc(Oc2ccccc2C=O)c1	inconclusive: 29.1 µM [cytotoxic, single point]	–

In a second layout: results already given
CCN(CC)c1ccc2nc3ccccc3[n+](CC)c2c1
  Potency: active: 9.2 µM
CCCCC1(O)CC(C(F)(F)F)=NN1C(=O)COc1ccccc1 (centres undefined)
  Potency: inconclusive: 23.1 µM [cytotoxic, single point]

(listing goes on)

SMILES	Potency	activity change, negative = cytotoxicity
Cc1onc(-c2ccccc2)c1C(=O)OCC(=O)NC(C)c1ccc(Cl)cc1 (centres undefined)	inconclusive: 32.6 µM [cytotoxic, single point]	–
O=C1Nc2ccc3c(c2C1=Cc1cc2c(cc1Br)OCO2)OCO3	inconclusive: 2.59 µM [cytotoxic, full curve, poor fit]	–
Nc1nc(CSc2nnnn2-c2ccc(F)c(Cl)c2)nc(N2CCOCC2)n1	inconclusive: 13 µM [cytotoxic, partial curve]	–
CC(C)=CCC/C(C)=C/CNC(=O)C[C@H]1C[C@H](C(=O)N2CCCCC2)[C@@]2(C)c3[nH]c4cc(-c5ccco5)ccc4c3CCN2C1=O	inconclusive: 23.1 µM [cytotoxic, single point]	–
Cc1[nH]n2c(=O)c3c(nc2c1-c1ccccc1)CCCC3	inconclusive: 25.9 µM [cytotoxic, partial curve, poor fit]	–
COc1cccc(CNC(=O)C2CCC(CNS(=O)(=O)c3ccc4c(c3)CCCC(=O)N4)CC2)c1 (centres undefined)	–	inactive: 7.06%
CN(C(=O)CSc1nnc(-c2ccccc2)o1)c1c(N)n(Cc2ccccc2)c(=O)[nH]c1=O	–	inactive: -2.63%
Cc1ccc(-n2cnc(=O)c3cccnc32)cc1	–	inactive: -1.98%
Cc1ccc(C)c(N(C)C(=O)CCS(=O)(=O)c2cccc3nonc23)c1	–	inactive: -45%
Cc1ccc(C)c2nc3sc(C(=O)N4CCCc5ccccc54)c(N)c3cc12	inconclusive: 4.61 µM [cytotoxic, full curve]	–
CCOc1ccc(-c2cc(C(=O)N3CCN(c4cc(Cl)ccc4C)CC3)c3ccccc3n2)cc1	inconclusive: 20.6 µM [rising, single point]	–
COc1ccc(OC)c(S(=O)(=O)N2CCCC(C(=O)NCCc3ccccc3)C2)c1 (centres undefined)	inconclusive: 8.2 µM [cytotoxic, partial curve]	–
CCn1c(SCC(=O)c2[nH]c(C)c(C(C)=O)c2C)nnc1-c1cccs1	active: 2.59 µM	–
COc1cccc(OCC(O)CN2CCN(c3ncccn3)CC2)c1 (centres undefined)	inconclusive: 10.3 µM [cytotoxic, partial curve]	–
CCCCN(CC(=O)Nc1c(C)cccc1CC)C(=O)SCC	inconclusive: 0.0058 µM [cytotoxic, full curve, poor fit]	–
Cc1cc(N2CCC(C)CC2)nc(-c2ccccc2O)n1	–	inactive: -17.2%
COCCCNc1c2c3c(cccc3[nH]c1=O)C(=O)c1ccccc1-2	active: 2.06 µM	–
Cc1cc(Cl)ccc1OCC(=O)NC1CCCC1	inconclusive: 20.6 µM [cytotoxic, single point]	–
CCOc1ccc2nc(SCC(=O)NCC3CCCO3)c(C#N)cc2c1 (centres undefined)	inconclusive: 0.517 µM [cytotoxic, partial curve, poor fit]	–
Cc1cc(C)n2ncc(C(=O)Nc3cccc(C#N)c3)c2n1	inconclusive: 6.93 µM [rising, single point]	–
Cc1n[nH]c(C)c1S(=O)(=O)N(CC(=O)Nc1ccc2c(c1)OCCO2)c1ccc(C(C)C)cc1	–	inactive: -0.669%
CC(C)(C)NC(=O)CN(C(=O)c1ccc(CN2CCOCC2)o1)c1ccc2c(c1)OCCO2	–	inactive: -19.5%
CCc1ccc(C(=O)c2cn(CC(=O)Nc3ccc4c(c3)OCO4)c3ccc(CC)cc3c2=O)cc1	–	inactive: -24.8%
